HELM strings list residues between dots; [ac] is acetyl, [am] amide, other brackets name non-standard units.
Assay: general procedure: Fmoc solid-phase peptide synthesis; H-Rink amide-ChemMatrix (PCAS BioMatrix Inc.); Cl-HOBt/DIPCDI
Conditions: whole synthesis, 220 nm

Substance	final HPLC purity [%]
PEPTIDE1{[dH].[dR].[dP].[dY].[dI].[dA].[dH].[am]}$$$$V2.0	>99
PEPTIDE1{[dP].[dW].[dV].[dP].[dS].[dW].[dM].[dP].[dP].[dR].[dH].[dT].[am]}$$$$V2.0	>99

— PMC5915530 (Scientific Reports, 2018)
